The text below walks through data of the M2OR odorant receptor database.

Common to all, as to details: stereoisomer not certain
For test [1], the system named is T1, OR6C4.
T1 sequence (whole entry): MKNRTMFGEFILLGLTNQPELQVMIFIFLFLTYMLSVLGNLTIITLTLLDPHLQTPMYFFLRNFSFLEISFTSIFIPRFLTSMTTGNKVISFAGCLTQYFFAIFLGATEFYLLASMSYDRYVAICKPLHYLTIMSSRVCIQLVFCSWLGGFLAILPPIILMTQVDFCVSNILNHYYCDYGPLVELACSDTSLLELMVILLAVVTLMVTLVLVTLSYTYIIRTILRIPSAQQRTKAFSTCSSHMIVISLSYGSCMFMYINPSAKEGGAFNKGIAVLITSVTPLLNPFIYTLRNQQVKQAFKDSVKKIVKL
A digest of the protocol: (§1)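 Each entry records the cell line, G-protein, co-transfected protein and tags used. Methods varied with the source, often transient luciferase assays in mammalian cell lines. A receptor–molecule pair is called responsive (active) if the original authors judged its signal statistically different from baseline and non-responsive (inactive) otherwise.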

In test [2] the target is T2, OR6C6 (Homo sapiens) (UniProt A6NF89).
T2 sequence (whole entry): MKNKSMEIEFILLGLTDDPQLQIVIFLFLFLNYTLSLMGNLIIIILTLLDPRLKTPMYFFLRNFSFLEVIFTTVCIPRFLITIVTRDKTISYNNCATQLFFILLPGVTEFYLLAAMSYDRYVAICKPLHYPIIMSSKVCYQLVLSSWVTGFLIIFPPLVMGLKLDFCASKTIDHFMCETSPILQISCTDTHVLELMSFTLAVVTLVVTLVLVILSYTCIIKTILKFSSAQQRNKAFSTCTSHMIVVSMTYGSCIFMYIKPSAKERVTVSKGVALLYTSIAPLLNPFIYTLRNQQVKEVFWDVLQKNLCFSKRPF
A digest of the protocol: as §1

Test [3] has as its target T3, OR6C65 (Homo sapiens) (UniProt A6NJZ3).
T3 sequence (whole entry): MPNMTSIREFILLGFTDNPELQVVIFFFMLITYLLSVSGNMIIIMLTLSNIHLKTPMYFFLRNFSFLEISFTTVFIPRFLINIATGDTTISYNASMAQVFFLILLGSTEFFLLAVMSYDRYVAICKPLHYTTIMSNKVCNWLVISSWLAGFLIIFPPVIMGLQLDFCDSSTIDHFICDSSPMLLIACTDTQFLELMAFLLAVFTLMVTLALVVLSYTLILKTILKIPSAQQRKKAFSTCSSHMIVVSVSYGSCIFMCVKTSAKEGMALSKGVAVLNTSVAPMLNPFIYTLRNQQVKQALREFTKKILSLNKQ
In a few lines: as §1

Test [4] addresses T4, OR6C74 (Homo sapiens) (UniProt A6NCV1).
T4 sequence (whole entry): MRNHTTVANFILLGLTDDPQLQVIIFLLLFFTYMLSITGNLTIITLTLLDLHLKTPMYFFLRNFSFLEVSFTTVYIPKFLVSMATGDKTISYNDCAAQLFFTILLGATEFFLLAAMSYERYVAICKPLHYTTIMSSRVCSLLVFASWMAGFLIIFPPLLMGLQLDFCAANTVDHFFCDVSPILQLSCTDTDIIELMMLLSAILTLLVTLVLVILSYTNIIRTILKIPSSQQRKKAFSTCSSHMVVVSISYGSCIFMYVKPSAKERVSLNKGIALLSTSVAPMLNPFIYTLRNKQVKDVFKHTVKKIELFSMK
A digest of the protocol:
as §1

Test [5] addresses T5, OR6C75 (Homo sapiens) (UniProt A6NL08).
T5 sequence (whole entry): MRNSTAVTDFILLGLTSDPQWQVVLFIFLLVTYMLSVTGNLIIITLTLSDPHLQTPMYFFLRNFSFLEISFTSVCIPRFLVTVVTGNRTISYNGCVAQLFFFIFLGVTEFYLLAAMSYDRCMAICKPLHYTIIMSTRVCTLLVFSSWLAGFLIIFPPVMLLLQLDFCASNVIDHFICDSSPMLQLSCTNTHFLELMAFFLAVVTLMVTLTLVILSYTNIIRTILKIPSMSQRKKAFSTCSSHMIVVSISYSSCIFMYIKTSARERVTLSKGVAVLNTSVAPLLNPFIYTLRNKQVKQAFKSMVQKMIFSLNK
In a few lines:
as §1

The target of test [6] is T6, OR6C76 (Homo sapiens) (UniProt A6NM76).
T6 sequence (whole entry): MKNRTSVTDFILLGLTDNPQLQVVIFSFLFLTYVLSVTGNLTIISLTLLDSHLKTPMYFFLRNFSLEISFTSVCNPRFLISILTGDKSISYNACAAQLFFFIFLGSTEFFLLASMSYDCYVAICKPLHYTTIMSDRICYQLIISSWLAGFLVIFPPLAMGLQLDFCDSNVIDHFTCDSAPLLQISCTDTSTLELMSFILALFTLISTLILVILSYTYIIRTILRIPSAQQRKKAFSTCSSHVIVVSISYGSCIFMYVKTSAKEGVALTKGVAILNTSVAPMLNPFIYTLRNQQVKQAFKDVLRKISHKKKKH
In a few lines: as §1

Test [7] addresses T7, OR6F1 (Homo sapiens) (UniProt Q8NGZ6).
T7 sequence (whole entry): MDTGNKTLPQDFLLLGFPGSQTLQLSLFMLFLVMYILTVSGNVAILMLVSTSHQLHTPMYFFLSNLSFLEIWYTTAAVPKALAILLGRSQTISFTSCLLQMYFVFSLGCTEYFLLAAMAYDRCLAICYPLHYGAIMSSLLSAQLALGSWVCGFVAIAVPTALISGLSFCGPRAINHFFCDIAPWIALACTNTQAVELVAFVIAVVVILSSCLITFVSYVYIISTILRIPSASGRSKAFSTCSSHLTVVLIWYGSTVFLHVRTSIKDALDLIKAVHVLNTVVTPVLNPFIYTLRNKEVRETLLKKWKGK
In a few lines: as §1

Structures are written as SMILES. The entries are a selection whose mix differs from that of the whole data set. Calls are pooled over several reports, among them a noisy single-well screen. Some of the results follow.

`COc1cc(C=O)ccc1O`: the “odorant receptor agonist call” value in test [1], in test [2], in test [3], in test [4], in test [5] and in test [6] was “inactive” in each case. Moreover, in test [7], the “odorant receptor agonist call” value is “inactive”.

Consider `CCCCCCCC=O`, for which the “odorant receptor agonist call” value in test [1], in test [2], in test [3], in test [4], in test [5] and in test [6] was “inactive” in each case. In addition, the “odorant receptor agonist call” value in test [7] is “inactive”.

`CCCCCCCOC(C)=O`: the “odorant receptor agonist call” value in test [1], in test [2], in test [3], in test [4], in test [5] and in test [6] was “inactive” throughout. Also, in test [7], the “odorant receptor agonist call” value was “inactive”.

As to `CCCCCCCCOC(C)=O`, the “odorant receptor agonist call” value in test [1], in test [2], in test [3], in test [4], in test [5] and in test [6] was “inactive” in each case. Moreover, in test [7], the “odorant receptor agonist call” value was “inactive”.

In the case of `CC1=CCC(C(C)(C)O)CC1` (centres undefined), the “odorant receptor agonist call” value in test [1], in test [2], in test [3], in test [4], in test [5] and in test [6] was “inactive” in each case. Besides, in test [7], the “odorant receptor agonist call” value was “inactive”.

Turning to `CC1COCc2cc3c(cc21)C(C)(C)C(C)C3(C)C` (centres undefined), the “odorant receptor agonist call” value in test [1], in test [2], in test [3], in test [4], in test [5] and in test [6] was “active” throughout. Further, in test [7], the “odorant receptor agonist call” value was “active”.

Consider `COC(=O)c1ccccc1O`, for which the “odorant receptor agonist call” value in test [1], in test [2], in test [3], in test [4], in test [5] and in test [6] was “inactive” each time. The “odorant receptor agonist call” value in test [7] was “inactive”.

As for `C=CCSCC=C`, the “odorant receptor agonist call” value in test [1], in test [2], in test [3], in test [4], in test [5] and in test [6] was “inactive” in each case. In test [7], the “odorant receptor agonist call” value is “inactive”.

Turning to `O=C1CCCCCCCCCCCCCCO1`, the “odorant receptor agonist call” value in test [1], in test [2], in test [3], in test [4], in test [5] and in test [6] was “inactive” each time. The “odorant receptor agonist call” value in test [7] is “inactive”.

As for `CCCCCCCCCCC=O`, the “odorant receptor agonist call” value in test [1], in test [2], in test [3], in test [4], in test [5] and in test [6] was “inactive” throughout. In addition, in test [7], the “odorant receptor agonist call” value was “inactive”.

Turning to `CC(=O)C(C)=O`, the “odorant receptor agonist call” value in test [1], in test [2], in test [3], in test [4], in test [5] and in test [6] was “inactive” each time. Further, the “odorant receptor agonist call” value in test [7] is “inactive”.

As to `C=CCc1ccc(OC(C)=O)c(OC)c1`, the “odorant receptor agonist call” value in test [1], in test [2], in test [3], in test [4], in test [5] and in test [6] was “inactive” each time. The “odorant receptor agonist call” value in test [7] was “inactive”.
